Among the data in publication PMC12589557 are binding values, retold here.

Sequences of proteins named here, by UniProt entry; tags and fusion partners are left off. A change or cut given only in a name is not applied to a line headed by its entry.
UniProt P61956: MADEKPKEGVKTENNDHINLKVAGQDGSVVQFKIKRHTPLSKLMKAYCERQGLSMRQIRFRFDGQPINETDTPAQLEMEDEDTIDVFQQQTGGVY
UniProt Q969G3: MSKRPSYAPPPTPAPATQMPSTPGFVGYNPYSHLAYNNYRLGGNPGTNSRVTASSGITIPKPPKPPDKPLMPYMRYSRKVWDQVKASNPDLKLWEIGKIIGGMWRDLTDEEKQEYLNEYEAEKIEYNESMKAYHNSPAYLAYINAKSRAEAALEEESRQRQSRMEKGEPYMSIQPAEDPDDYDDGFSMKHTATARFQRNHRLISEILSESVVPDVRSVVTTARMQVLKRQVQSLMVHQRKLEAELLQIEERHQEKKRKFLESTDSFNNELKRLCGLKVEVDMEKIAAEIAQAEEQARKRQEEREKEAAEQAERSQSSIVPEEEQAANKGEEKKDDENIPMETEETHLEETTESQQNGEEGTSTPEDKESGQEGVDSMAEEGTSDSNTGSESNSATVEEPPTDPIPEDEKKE
UniProt Q12824: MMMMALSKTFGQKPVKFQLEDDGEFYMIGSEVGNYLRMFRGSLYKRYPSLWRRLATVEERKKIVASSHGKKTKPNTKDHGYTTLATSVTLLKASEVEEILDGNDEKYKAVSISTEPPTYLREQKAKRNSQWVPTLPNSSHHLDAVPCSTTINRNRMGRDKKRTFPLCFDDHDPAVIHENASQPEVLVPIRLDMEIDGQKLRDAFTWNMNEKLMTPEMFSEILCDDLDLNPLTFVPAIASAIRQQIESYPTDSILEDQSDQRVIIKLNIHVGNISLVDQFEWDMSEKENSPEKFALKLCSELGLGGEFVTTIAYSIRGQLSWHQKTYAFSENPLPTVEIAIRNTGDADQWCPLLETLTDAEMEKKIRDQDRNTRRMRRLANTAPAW

Results are given in words; binding and its absence hold for the method and conditions named. Binding seen in cells or lysates may run through a third protein. Binding can be weak; no strength is given.

In this test the target is SUMO2 (UniProt P61956). The test can be described thus: co-IP; SUMO-2/3 affinity beads on nuclear lysate of HS-SY-II and Yamato cells transfected with 6His-SUMO2; untreated or 100 nM TAK-981 for 36 h; IP lysis buffer with NEM; 4 C overnight; IgG control beads.

For SMARCE1 (from UniProt Q969G3 1-411), the binding result is on record as “binds”.
Then “SMARCB1 (BAF47) (from UniProt Q12824 1-385)”, with “binds”.
